Experimental data: publication PMC11656939
Results are given in words; binding and its absence hold for the method and conditions named. Binding seen in cells or lysates may run through a third protein. Some entries that bind do so weakly or less than the wild type.

The chains behind the UniProt entries cited, without tags or fusion partners.
UniProt P31749: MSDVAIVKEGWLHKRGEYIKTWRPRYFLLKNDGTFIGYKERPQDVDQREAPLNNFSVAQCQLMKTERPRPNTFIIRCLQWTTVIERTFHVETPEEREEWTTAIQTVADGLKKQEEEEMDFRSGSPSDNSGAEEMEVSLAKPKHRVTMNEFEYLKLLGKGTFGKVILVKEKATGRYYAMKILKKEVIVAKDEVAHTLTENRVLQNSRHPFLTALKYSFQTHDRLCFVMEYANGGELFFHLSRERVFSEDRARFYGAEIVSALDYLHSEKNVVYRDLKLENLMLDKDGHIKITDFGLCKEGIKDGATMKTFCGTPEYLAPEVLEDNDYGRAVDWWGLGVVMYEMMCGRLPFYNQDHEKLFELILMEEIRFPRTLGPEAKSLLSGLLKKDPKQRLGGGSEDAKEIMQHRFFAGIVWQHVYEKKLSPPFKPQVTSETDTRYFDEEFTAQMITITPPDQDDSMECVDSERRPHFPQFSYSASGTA

Biological target: RAC-alpha serine/threonine-protein kinase (AKT1) (human (endogenous in HUVECs)) (UniProt P31749)
Assay: co-IP; wild type HUVEC lysate (150 mM NaCl, 0.5% Triton X-100, 0.5% sodium deoxycholate, protease and phosphatase inhibitors); AKT1 antibody on Protein G magnetic beads, overnight at +4 °C; Western blot; mouse-HRP antibody as negative control

binding: binds
B1: ORP7 (protein, UniProt Q9BZF2 1-842)
chain: MDFQERDPPFLPESAQSSKPSSAQQASELWEVVEEPRVRLGTEGVMPERQEGHLLKKRKWPLKGWHKRYFVLEDGILHYATTRQDITKGKLHGSIDVRLSVMSINKKAQRIDLDTEDNIYHLKIKSQDLFQSWVAQLRAHRLAHRLDMPRGSLPSTAHRKVPGAQLPTAATASALPGLGPREKVSSWLRDSDGLDRCSHELSECQGKLQELHRLLQSLESLHRIPSAPVIPTHQASVTTERPKKGKRTSRMWCTQSFAKDDTIGRVGRLHGSVPNLSRYLESRDSSGTRGLPPTDYAHLQRSFWALAQKVHSSLSSVLAALTMERDQLRDMHQGSELSRMGVSEASTGQRRLHSLSTSSDTTADSFSSLNPEEQEALYMKGRELTPQLSQTSILSLADSHTEFFDACEVLLSASSSENEGSEEEESCTSEITTSLSEEMLDLRGAERCQKGGCVPGRPMGPPRRRCLPAASGPGADVSLWNILRNNIGKDLSKVSMPVQLNEPLNTLQRLCEELEYSSLLDQASRIADPCERMVYIAAFAVSAYSSTYHRAGCKPFNPVLGETYECERPDRGFRFISEQVSHHPPISACHAESENFAFWQDMKWKNKFWGKSLEIVPVGTVNVSLPRFGDHFEWNKVTSCIHNVLSGQRWIEHYGEVLIRNTQDSSCHCKITFCKAKYWSSNVHEVQGAVLSRSGRVLHRLFGKWHEGLYRGPTPGGQCIWKPNSMPPDHERNFGFTQFALELNELTAELKRSLPSTDTRLRPDQRYLEEGNIQAAEAQKRRIEQLQRDRRKVMEENNIVHQARFFRRQTDSSGKEWWVTNNTYWRLRAEPGYGNMDGAVLW
